Test system: cAMP-activated K+ channels
Assay: Inhibition of forskolin-induced short-circuit current in T84 cells (FIG. 11B)
Format: cell-based, human
Conditions: 10 μM forskolin

Clc1ccccc1C(c1ccccc1)(c1ccccc1)n1ccnc1 [clotrimazole]
IC50 for inhibition of cAMP-dependent basolateral K+ conductance: low micromolar

From patent US12390473B2, “Methods of treating tyrosine kinase inhibitor-induced diarrhea” (THE REGENTS OF THE UNIVERSITY OF CALIFORNIA, priority 2019, dated 2025)
